Test results as given in PubChem BioAssay AID540276 (National Center for Advancing Translational Sciences (NCATS), 2011).
Where “and” joins values, the source holds several entries; their conditions need not be identical. Identical values can stand only once. Out of some 300,000 compounds screened, about 5,400 (1.8%) were called active. Inconclusive means that the source gave no clear call. Such entries were picked first, then a sample of the others. Calls follow the shape of the full dose curve; tested in HEK293 cells. A potency beside an inconclusive call is a rough fit, not a confirmed value.

Assay: qHTS for inhibitors of binding or entry into cells for Marburg Virus
Settings: Marburg virus pseudotyped entry inhibition, cell reporter; series mostly up to 37.8 µM
Potency is read from the fitted curve at half-maximal effect.

**Q.** Which Potency does the source give for `CCOc1ccc(NC(=O)NC(C)c2c(-n3cccc3)sc(C)c2C)cc1` (centres undefined) here?
**A.** The Potency was inconclusive: 35.5 µM [inhibitor, single point].

**Q.** For `CCOc1ccccc1N1CCN(CC(=O)NC(C)c2ccccc2)CC1` (centres undefined), which Potency is on record?
**A.** Its Potency is inconclusive: 35.5 µM [inhibitor, partial curve, poor fit].

**Q.** For `COc1ccc(N(CC(=O)O)S(=O)(=O)c2cccnc2)cc1`, which Potency is on record?
**A.** Its Potency is inconclusive: 0.316 µM [inhibitor, full curve, poor fit].

**Q.** For `Cc1ccc(-n2nc(C(=O)O)c(C)c(C#N)c2=O)cc1Cl`, which Potency is on record?
**A.** Its Potency is “inactive”.

**Q.** Which Potency does the source give for `Cc1ccc(C(=O)Sc2cccccc2=O)cc1` here?
**A.** The Potency was inconclusive: 1.12 µM [inhibitor, partial curve, poor fit].

**Q.** For `O=C(C1CCCN1S(=O)(=O)c1ccc(Cl)cc1)N1CCCCC1` (centres undefined), which Potency is on record?
**A.** The Potency was “inactive”.

**Q.** Which Potency does the source give for `COc1ccc(-c2nc(-c3ccc(NC(=O)c4ccc(Br)o4)cc3)no2)cc1OC` here?
**A.** The Potency was inconclusive: 5.01 µM [activator, full curve, poor fit].

**Q.** Which Potency does the source give for `CC(C)(O)CN(C(=O)C(c1ccccc1)c1ccccc1)C1CCCCC1` here?
**A.** The Potency was inconclusive: 35.5 µM [inhibitor, single point].

**Q.** Which Potency does the source give for `Cc1cc(Oc2nc3ccccn3c(=O)c2/C=C(\C#N)C(=O)NC2CCS(=O)(=O)C2)ccc1Cl` (centres undefined) here?
**A.** The Potency was inconclusive: 35.5 µM [inhibitor, single point].

**Q.** For `CCOc1ccc(N=Nc2c(C)noc2C)cc1`, which Potency is on record?
**A.** The Potency was “inactive”.

**Q.** For `NC/C=C/C(=O)O`, which Potency is on record?
**A.** The Potency was inconclusive: 100 nM [inhibitor, full curve, poor fit] and inconclusive: 130 nM [activator, full curve, poor fit].

**Q.** With `COc1ccc2c(c1)CC/C2=N\OC(=O)c1ccccc1C` as the compound, how does the Potency read?
**A.** The Potency was inconclusive: 3.16 µM [activator, partial curve, poor fit].

**Q.** With `CCOC(=O)c1c(C=O)c2sc(C)cc2n1C` as the compound, how does the Potency read?
**A.** The Potency was “inactive”.

**Q.** Which Potency does the source give for `CCCCCn1c(=O)c(C(=O)Nc2cnccn2)c(O)c2ccccc21` here?
**A.** Its Potency is inconclusive: 5.62 µM [inhibitor, single point].

**Q.** For `CCC(C)(C)NC(=O)C(c1ccc(C)cc1)N(Cc1cccs1)C(=O)c1ccc2c(c1)OCCO2` (centres undefined), which Potency is on record?
**A.** Its Potency is active: 14.6 µM.

**Q.** For `CCOC(=O)/C=C/C(=O)Nc1ccc(S(=O)(=O)N(C)c2ccccc2)cc1`, which Potency is on record?
**A.** The Potency was inconclusive: 15.8 µM [inhibitor, single point].

**Q.** Which Potency does the source give for `CCCN1Cc2cccc(C(=O)Nc3ccc4c(c3)OCO4)c2C1=O` here?
**A.** Its Potency is “inactive”.

**Q.** Which Potency does the source give for `CCOC(=O)c1c(NC(=O)c2nn(CC)cc2Br)sc2c1CCCCC2` here?
**A.** The Potency was inconclusive: 29.1 µM [inhibitor, single point].

**Q.** With `O=C(c1ccc(=O)oc1)N1CCCc2ccccc21` as the compound, how does the Potency read?
**A.** The Potency was “inactive”.

**Q.** For `c1nnc(NC2=NCCC2)s1`, which Potency is on record?
**A.** The Potency was “inactive”.

**Q.** With `Cc1cccc(N2CCN(C(=O)Cc3cn(C)c4ccccc34)CC2)c1C` as the compound, how does the Potency read?
**A.** Its Potency is inconclusive: 16.4 µM [inhibitor, partial curve, poor fit].

**Q.** Which Potency does the source give for `O=C(Nn1cnc2ccccc2c1=O)c1ccccc1[N+](=O)[O-]` here?
**A.** The Potency was “inactive”.

**Q.** With `CCS(=O)(=O)c1ccc(C(=O)Nc2cccc(Cl)c2)c(Cl)c1Cl` as the compound, how does the Potency read?
**A.** Its Potency is inconclusive: 15.8 µM [inhibitor, partial curve, poor fit].

**Q.** For `COc1ccc2[nH]c3nc(SCC(=O)NC4CC4)nnc3c2c1`, which Potency is on record?
**A.** The Potency was “inactive”.

**Q.** For `COC(OC)C12c3ccccc3C(c3ccccc31)C1C(=O)N(c3cccnc3)C(=O)C12` (centres undefined), which Potency is on record?
**A.** Its Potency is inconclusive: 35.5 µM [inhibitor, single point].

**Q.** For `Cc1nc2ccccc2n1CSc1ccccc1`, which Potency is on record?
**A.** The Potency was inconclusive: 2.59 µM [activator, partial curve].

**Q.** For `CSc1ccccc1OCc1cc(C(=O)NCCC2CCCCO2)no1` (centres undefined), which Potency is on record?
**A.** The Potency was “inactive”.

**Q.** For `COc1ccc(-c2nc3nc(C)cc(Nc4ccc(C(C)=O)cc4)n3n2)cc1`, which Potency is on record?
**A.** The Potency was inconclusive: 35.5 µM [inhibitor, single point].

**Q.** For `N#CC1C(=O)NC(c2ccccc2)=CC1c1ccccc1` (centres undefined), which Potency is on record?
**A.** Its Potency is inconclusive: 7.94 µM [inhibitor, partial curve, poor fit].

**Q.** With `CCOC(=O)C1CCN(S(=O)(=O)c2ccc(Br)c(OCC)c2)CC1` as the compound, how does the Potency read?
**A.** The Potency was inconclusive: 5.01 µM [inhibitor, single point].

**Q.** For `Cc1cc(NC(=O)CS(=O)(=O)c2cn(Cc3ccccc3Cl)c3ccccc23)no1`, which Potency is on record?
**A.** The Potency was inconclusive: 18.3 µM [inhibitor, single point].

**Q.** Which Potency does the source give for `Cc1ccc(C(=O)NCCc2ccc(F)cc2)s1` here?
**A.** Its Potency is inconclusive: 1.26 µM [activator, single point].

**Q.** For `Cc1cccc(NC(=O)CN(C)C(=O)c2ccc(N3CCCCCC3)c([N+](=O)[O-])c2)c1C`, which Potency is on record?
**A.** Its Potency is inconclusive: 5.01 µM [inhibitor, partial curve, poor fit].

**Q.** Which Potency does the source give for `CCCc1cc(=O)oc2c(C)c(OCC(=O)Nc3cccnc3)ccc12` here?
**A.** The Potency was “inactive”.

**Q.** For `O=c1[nH]c(Cc2ccc(F)cc2)nc2scc(-c3ccc(F)cc3)c12`, which Potency is on record?
**A.** The Potency was inconclusive: 35.5 µM [inhibitor, single point].

**Q.** Which Potency does the source give for `COc1cc(CNCCNC(=O)c2nonc2N)ccc1OCc1ccc(Cl)nc1` here?
**A.** Its Potency is inconclusive: 8.2 µM [inhibitor, partial curve, poor fit].

**Q.** Which Potency does the source give for `CC1CCN(c2ccc(NC(=S)NC(=O)c3ccco3)cc2)CC1` here?
**A.** The Potency was “inactive”.

**Q.** Which Potency does the source give for `CC1CCN(C(=O)COc2cccc3c2CCN(Cc2ccccc2)C3=O)CC1` here?
**A.** The Potency was inconclusive: 5.62 µM [inhibitor, full curve, poor fit].

**Q.** For `COc1ccc(C(N)=O)cc1N`, which Potency is on record?
**A.** Its Potency is “inactive”.

**Q.** With `C=CCn1c(SCCOc2ccc(OC)cc2)nnc1C(NC(=O)c1ccc(OC)cc1)C(C)C` (centres undefined) as the compound, how does the Potency read?
**A.** The Potency was inconclusive: 29.1 µM [inhibitor, single point].

**Q.** Which Potency does the source give for `CCCOc1ccc(Nc2nc(SC)ncc2C(=O)OCC)cc1` here?
**A.** The Potency was “inactive”.

**Q.** Which Potency does the source give for `S=C(NCc1ccccc1)Nc1cccc2cnccc12` here?
**A.** Its Potency is inconclusive: 1 µM [inhibitor, full curve, poor fit].

**Q.** With `CC(=O)N[C@@H](Cc1c[nH]c2ccccc12)C(=O)OCc1cc(C(F)(F)F)cc(C(F)(F)F)c1` as the compound, how does the Potency read?
**A.** Its Potency is inconclusive: 56.2 nM [inhibitor, full curve, poor fit] and inconclusive: 16.4 µM [activator, single point].

**Q.** For `COc1cccc2c1Oc1nc(-c3ccccc3)nc(SCC(=O)N3CCCCC3)c1C2`, which Potency is on record?
**A.** Its Potency is “inactive”.
